Results: patent US6465443B2, “Method for inhibiting bone resorption” (Merck & Co., Inc., priority 1997, dated 2002)

System: canine esophagus tissue
Assay: Esophageal irritation potential, dog model (esophageal infusion, histopathology)
Type: in vivo
Method: The esophageal irritation potential of the bisphosphonates is evaluated using a dog model.
The following solutions are prepared:
(1) simulated gastric juice (pH about 2), i.e. the control solution.
(5) simulated gastric juice (pH about 2) containing about 0.20 mg/mL of risedronate sodium on a risedronic acid active basis.
(6) simulated gastric juice (pH about 2) containing about 4.0 mg/mL of tiludronate disodium on a tiludronic acid active basis.
The simulated gastric juice is prepared by dissolving about 960 mg of pepsin (L-585,228000B003, Fisher Chemical) in about 147 mL of 0.90 (wt %) NaCl (aqueous), adding about 3 mL of 1.0 M HCl (aqueous), and adjusting the volume to about 300 mL with deionized water. The pH of the resulting solution is measured and if necessary is adjusted to about 2 using 1.0 M HCl (aqueous) or 1.0 M NaOH (aqueous).
The animals used in the experiments are anesthetized and administered about 50 mL of the appropriate solution over about 30 minutes by infusion into the esophagus using an infusion pump and a rubber catheter. The following treatment experiments are run:
Group 1: This control group contains four animals. Each animal is administered a dosage of about 50 mL of simulated gastric juice [solution (1)] on each of five consecutive days. […]
Group 2: This group contains four animals. […]
Group 3: This group contains five animals. […] The animals are sacrificed about 24 hours after the dose is administered.
Group 4: This group contains five animals. […] The animals are sacrificed about 7 days after the dose is administered.
Group 5: This group contains six animals. […] The animals are administered a total of four dosages. The animals are sacrificed about 7 days after the last dose is administered.
Group 6: This group contains six animals. […] The animals are administered a total of eight dosages. The animals are sacrificed about four days after the last dose is administered.
Group 7: This group contains eight animals. […]

SMILES: NCCCC(O)(P(=O)(O)O)P(=O)(O)O [Alendronate, 4-amino-1-hydroxybutylidene-1,1-bisphosphonic acid monosodium trihydrate]
- Esophageal irritation versus low concentration dosages on consecutive days (Group 2) (high concentration on a weekly basis (Group 5)): consideraly less esophageal irritation
- Esophageal irritation versus low concentration dosages on consecutive days (Group 2) (single high concentration dosage (Groups 3 and 4)): considerably less esophageal irritation (comparable to control Group 1)
- Esophageal irritation versus low concentration dosages on consecutive days (Group 2) (twice-weekly basis (Group 6)): consideraly less esophageal irritation
